Reference: article PMC4598761

Target: GST alone
Assay: pull-down; purified recombinant proteins mixed overnight at 4 °C (1.5 mg/mL each), precipitated with 20 μL Glutathione-Sepharose 4B for 1 h at 4 °C (GST or GST-tagged protein held), washed three times with PBS, western blotting; both purified

B1: His-GBA3-HA (recombinant epitope-tagged cytosolic β-glycosidase GBA3) (enzyme, UniProt Q9H227 1-469)
chain: MAFPAGFGWAAATAAYQVEGGWDADGKGPCVWDTFTHQGGERVFKNQTGDVACGSYTLWEEDLKCIKQLGLTHYRFSLSWSRLLPDGTTGFINQKGIDYYNKIIDDLLKNGVTPIVTLYHFDLPQTLEDQGGWLSEAIIESFDKYAQFCFSTFGDRVKQWITINEANVLSVMSYDLGMFPPGIPHFGTGGYQAAHNLIKAHARSWHSYDSLFRKKQKGMVSLSLFAVWLEPADPNSVSDQEAAKRAITFHLDLFAKPIFIDGDYPEVVKSQIASMSQKQGYPSSRLPEFTEEEKKMIKGTADFFAVQYYTTRLIKYQENKKGELGILQDAEIEFFPDPSWKNVDWIYVVPWGVCKLLKYIKDTYNNPVIYITENGFPQSDPAPLDDTQRWEYFRQTFQELFKAIQLDKVNLQVYCAWSLLDNFEWNQGYSSRFGLFHVDFEDPARPRVPYTSAKEYAKIIRNNGLEAHL
  binding: no binding

Results are given in words; binding and its absence hold for the method and conditions named. Sequences can lack the tags named with a protein.
